The values that follow come from patent US20260242474A1 (PERSONGEN BIOTHERAPEUTICS SUZHOU, published 2026).

The chains behind the UniProt entries cited, without tags or fusion partners. Residues count along the entry.
UniProt Q15116, residues 25-288: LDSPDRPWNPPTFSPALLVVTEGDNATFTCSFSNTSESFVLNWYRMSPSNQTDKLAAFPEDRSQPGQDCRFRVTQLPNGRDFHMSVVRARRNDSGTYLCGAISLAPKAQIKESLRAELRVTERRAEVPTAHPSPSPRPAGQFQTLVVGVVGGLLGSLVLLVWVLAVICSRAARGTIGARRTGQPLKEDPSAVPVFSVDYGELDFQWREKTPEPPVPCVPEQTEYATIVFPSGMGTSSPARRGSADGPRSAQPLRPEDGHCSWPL

The target of this experiment is PD1 on overexpressing cells (UniProt Q15116). As to the kind of experiment: flow cytometry, CHO cells overexpressing PD1, PE-anti-human IgG.

Residue numbers refer to the chain shown, from its start. No constants are given. Whether binding was seen depends on the method and setting. Some binding calls cover weakened binding; strength is not graded here. Sequences can lack the tags named with a protein.

B1: LAB190417-2-B1 PD1 single domain antibody (VHH with human IgG1 Fc) (Fc fusion, not shown: a dimerising Fc or GST)
chain: QVQLVESGGGLVQPGGSLTVSCAASGFSLDAYTIGWFRQAPGKEREGIICISRGGRITNYAHSVKDRFTISRDGAKNTVYLHMNSLKPEDTGAYYCAAVQRDPFICSGYTQSYDHWGQGTQVTVSS
On to B1, for which the binding entry is “binds”.

B2: LAB190417-2-F3 PD1 single domain antibody (VHH with human IgG1 Fc) (Fc fusion, not shown: a dimerising Fc or GST)
chain: B1 chain with Q3K, V5E, A23V, T78M, H115L
With B2, the binding entry is listed as “binds”.

B3: LAB190417-3-H6 PD1 single domain antibody (VHH with human IgG1 Fc) (Fc fusion, not shown: a dimerising Fc or GST)
chain: QLKVVESGGGLVQPGESLRLSCAASGFTLGNYGVAWFRQAPGKEREGLSCITSGSTSVTHADSVKGRFSVSRDSDKKMVYLQMDSLKPEDTGIYYCAAADGGYVCSRNVNANEFDYWGQGTQVTVSS
On to B3, for which the binding entry is “binds”.

B4: LAB190417-2-C10 PD1 single domain antibody (VHH with human IgG1 Fc) (Fc fusion, not shown: a dimerising Fc or GST)
chain: QVQLVESGGGLVQPGGSLRLSCAASGFSLDAYTIGWFRQAPGQEREGISCISRSGRITNYARSAKDRFTISRDNAKNTVYLEMKNLRPEDTGAYYCAAVEMDPFLCSGYTQSYDQWGQGTQVTVSS
B4: the binding result is reported as “binds”.
